Assay [1] addresses afadin (human (endogenous in Ls174T)) (UniProt P55196). The assay can be described thus: co-IP; endogenous proteins from Ls174T lysate (50 mM Tris HCl pH 7.5, 150 mM NaCl, 1 mM MgCl2, 1% Nonidet P-40, 1 mM EGTA, 10% glycerol); IgG, anti-afadin or anti-EphB3 antibody on Dynabeads Protein G added to 1 mg of pre-cleared lysate; Western blot. (A western blot detects proteins with antibodies after separation by electrophoresis.)

The chains behind the UniProt entries cited, without tags or fusion partners. Where a name states a change or a piece, a line headed by the entry shows the natural chain unless it says otherwise. A line that says so, or that is headed by a name, gives the form on record, which may keep a tag or linker. Residues count along the entry.
afadin (P55196-1, form named): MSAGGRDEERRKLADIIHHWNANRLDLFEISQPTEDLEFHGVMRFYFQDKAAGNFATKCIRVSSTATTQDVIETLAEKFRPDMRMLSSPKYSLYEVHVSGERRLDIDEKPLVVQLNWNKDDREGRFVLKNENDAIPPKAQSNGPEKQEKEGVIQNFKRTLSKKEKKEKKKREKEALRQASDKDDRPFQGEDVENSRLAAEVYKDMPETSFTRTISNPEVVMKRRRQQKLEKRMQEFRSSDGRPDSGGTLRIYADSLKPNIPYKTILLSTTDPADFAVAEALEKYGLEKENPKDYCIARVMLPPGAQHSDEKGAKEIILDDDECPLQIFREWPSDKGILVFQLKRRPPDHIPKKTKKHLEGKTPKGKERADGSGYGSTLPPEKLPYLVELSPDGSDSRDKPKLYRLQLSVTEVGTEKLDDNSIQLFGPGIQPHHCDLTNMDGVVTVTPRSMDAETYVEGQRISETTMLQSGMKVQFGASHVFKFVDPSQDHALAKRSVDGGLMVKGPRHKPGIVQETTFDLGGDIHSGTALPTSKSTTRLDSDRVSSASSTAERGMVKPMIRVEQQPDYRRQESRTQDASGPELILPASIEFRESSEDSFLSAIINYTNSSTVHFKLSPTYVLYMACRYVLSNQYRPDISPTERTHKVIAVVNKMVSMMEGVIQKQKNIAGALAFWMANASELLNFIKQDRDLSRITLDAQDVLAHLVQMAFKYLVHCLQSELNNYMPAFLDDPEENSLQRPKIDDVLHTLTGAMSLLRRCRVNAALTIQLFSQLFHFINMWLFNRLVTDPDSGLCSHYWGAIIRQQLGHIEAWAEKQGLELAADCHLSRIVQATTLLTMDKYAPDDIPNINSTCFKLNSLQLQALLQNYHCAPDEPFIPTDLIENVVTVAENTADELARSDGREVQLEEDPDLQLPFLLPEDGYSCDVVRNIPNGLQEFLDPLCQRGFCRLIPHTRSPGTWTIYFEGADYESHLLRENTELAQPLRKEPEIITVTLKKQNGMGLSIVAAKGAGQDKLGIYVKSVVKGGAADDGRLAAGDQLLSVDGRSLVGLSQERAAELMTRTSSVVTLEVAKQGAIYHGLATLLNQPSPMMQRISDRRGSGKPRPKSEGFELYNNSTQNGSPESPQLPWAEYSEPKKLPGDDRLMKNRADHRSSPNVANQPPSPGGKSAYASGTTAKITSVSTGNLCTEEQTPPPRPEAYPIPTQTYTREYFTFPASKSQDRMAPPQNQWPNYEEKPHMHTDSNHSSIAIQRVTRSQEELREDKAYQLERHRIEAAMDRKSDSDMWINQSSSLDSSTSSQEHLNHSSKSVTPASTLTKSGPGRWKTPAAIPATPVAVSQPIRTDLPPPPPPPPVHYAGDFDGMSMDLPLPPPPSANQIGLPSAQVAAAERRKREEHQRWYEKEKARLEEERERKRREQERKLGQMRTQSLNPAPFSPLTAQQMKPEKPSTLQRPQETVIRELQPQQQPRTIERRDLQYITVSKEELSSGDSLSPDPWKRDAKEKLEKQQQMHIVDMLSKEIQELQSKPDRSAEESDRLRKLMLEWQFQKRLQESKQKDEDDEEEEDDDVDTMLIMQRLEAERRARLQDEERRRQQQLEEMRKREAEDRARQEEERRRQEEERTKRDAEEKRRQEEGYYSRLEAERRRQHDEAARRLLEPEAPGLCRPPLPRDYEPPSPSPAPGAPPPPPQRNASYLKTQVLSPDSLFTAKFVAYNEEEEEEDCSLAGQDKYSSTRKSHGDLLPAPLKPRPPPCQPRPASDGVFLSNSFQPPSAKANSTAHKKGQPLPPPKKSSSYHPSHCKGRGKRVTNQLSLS
UniProt P54753, residues 34-998: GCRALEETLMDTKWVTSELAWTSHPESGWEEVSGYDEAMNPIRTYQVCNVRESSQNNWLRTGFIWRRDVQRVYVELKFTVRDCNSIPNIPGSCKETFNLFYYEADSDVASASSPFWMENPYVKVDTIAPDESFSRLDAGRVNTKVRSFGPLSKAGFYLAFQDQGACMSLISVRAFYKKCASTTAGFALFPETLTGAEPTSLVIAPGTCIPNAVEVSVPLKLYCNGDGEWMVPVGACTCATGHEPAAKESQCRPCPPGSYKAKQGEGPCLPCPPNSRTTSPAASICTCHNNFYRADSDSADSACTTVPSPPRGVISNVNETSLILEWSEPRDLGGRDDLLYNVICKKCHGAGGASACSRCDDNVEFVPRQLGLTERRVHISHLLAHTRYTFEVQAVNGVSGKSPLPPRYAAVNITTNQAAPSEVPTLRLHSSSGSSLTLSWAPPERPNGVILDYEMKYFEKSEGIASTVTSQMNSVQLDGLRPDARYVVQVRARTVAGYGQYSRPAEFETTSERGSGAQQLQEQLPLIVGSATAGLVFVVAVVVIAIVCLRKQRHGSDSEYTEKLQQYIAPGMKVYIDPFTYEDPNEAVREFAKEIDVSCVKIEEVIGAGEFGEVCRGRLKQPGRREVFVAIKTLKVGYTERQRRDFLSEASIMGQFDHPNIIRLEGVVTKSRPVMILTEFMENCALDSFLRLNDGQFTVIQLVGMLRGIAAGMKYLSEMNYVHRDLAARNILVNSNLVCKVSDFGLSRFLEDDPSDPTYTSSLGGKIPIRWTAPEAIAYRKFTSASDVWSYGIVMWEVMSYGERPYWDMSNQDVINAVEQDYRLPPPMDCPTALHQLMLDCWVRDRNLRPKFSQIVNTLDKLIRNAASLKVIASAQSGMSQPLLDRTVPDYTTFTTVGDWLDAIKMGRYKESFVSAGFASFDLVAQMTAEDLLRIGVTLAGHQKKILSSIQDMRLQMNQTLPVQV

The target in assay [2] is EphB3 (human (endogenous in Ls174T)) (UniProt P54753). The description is as above.

These are yes or no findings as the source states them, for the method shown. Binding seen in cells or lysates may run through a third protein. Some binding calls cover weakened binding; strength is not graded here.

“EphB3 (from UniProt P54753 34-998) (receptor)”: the binding result in assay [1] is on record as “binds”.

Turning to afadin (from UniProt P55196-1 1-1816), in assay [2], the binding entry was “binds”.

Source of the values: publication PMC4204899.
